Reference: the supplement of paper PMC3682954
“And” between values parts separate entries of the source, which are not always exact repeats. Equal entries are not always repeated. Structures can show the parent of a compound that is named as a salt. ± gives the standard deviation of the averaged measurements. The list shows a part of the results. Most values come without repeats; read them as rough.

Test system: RAW 264.7
Assay: HMGB1-induced TNF-alpha production relative to HMGB1-stimulated control; higher = more TNF-alpha secretion (less inhibition)
Conditions: stimulus: HMGB1 5 ug/ml, 18 h
[1] = compound concentration: 1 ug/ml

SMILES	HMGB1-induced TNF-alpha production (compound concentration: 3 uM)	HMGB1-induced TNF-alpha production [1] [%]
C[C@H](CCC(=O)O)[C@H]1CC[C@H]2[C@@H]3[C@H](O)C[C@@H]4C[C@H](O)CC[C@]4(C)[C@H]3CC[C@]12C [Chenodiol]	54.7%	
C[C@H](CCC(=O)O)[C@H]1CC[C@H]2[C@@H]3[C@H](O)C[C@@H]4C[C@H](O)CC[C@]4(C)[C@H]3CC[C@]12C	99%	
CN1CCN(c2c(F)cc3c(=O)c(C(=O)O)cn(CCF)c3c2F)CC1 [Fleroxacin]	92.581 ± 0.0042%	
Nc1ncnc2c1c(I)cn2[C@@H]1C[C@H](N)[C@@H](O)[C@H]1O	84.3%	
NNc1nncc2ccccc12	104%	
NNc1nncc2ccccc12 [Hydralazine hydrochloride]	83.5 ± 1.9%	
CC(=O)OCC(CCn1cnc2cnc(N)nc21)COC(C)=O	101 ± 18%	
CC(=O)OCC(CCn1cnc2cnc(N)nc21)COC(C)=O [Famciclovir]	90.9 ± 15%	
O=C(/C=C/c1ccc(O)c(O)c1)OCCc1ccccc1 [Caffeic acid phenethyl ester]	51.5%	
NCC(O)CC(=O)O (stereo not drawn)	81.1%	
CN1CCN(CCCN2c3ccccc3Sc3ccc(Cl)cc32)CC1	84.2% and 92.5%	
CN1CCN(CCCN2c3ccccc3Sc3ccc(Cl)cc32)CC1 [Prochlorperazine dimaleate]	73.5 ± 18%	
Cc1nc(=O)c2cc(CN(C)c3ccc(C(=O)N[C@@H](CCC(=O)O)C(=O)O)s3)ccc2[nH]1	94.7%	
O=C1c2ccccc2C(=O)c2c1ccc(O)c2O [Alizarin]		84.6
O=c1oc2ccccc2c(O)c1Cc1c(O)c2ccccc2oc1=O	79.6%	
O=c1oc2ccccc2c(O)c1Cc1c(O)c2ccccc2oc1=O [Dicumarol]	88.9%	
Cn1ccc2cc(NC(=O)Nc3cccnc3)ccc21	91.7%	
CC(=O)[C@]1(O)Cc2c(O)c3c(c(O)c2[C@@H](O[C@H]2C[C@H](N)[C@H](O)[C@H](C)O2)C1)C(=O)c1ccccc1C3=O [Idarubicin]	15.4 ± 6.2%	
CC(=O)[C@]1(O)Cc2c(O)c3c(c(O)c2[C@@H](O[C@H]2C[C@H](N)[C@H](O)[C@H](C)O2)C1)C(=O)c1ccccc1C3=O	6.07%	
NC(=O)NCCCC(N)C(=O)O (stereo not drawn) [L(+)-Citrulline]		82
OC[C@H]1O[C@@H](Oc2cc(O)cc(/C=C/c3ccc(O)cc3)c2)[C@H](O)[C@@H](O)[C@@H]1O	103%	
CC(C)C[C@@H](NC(=O)[C@H](C)NC(=O)CNC(=O)[C@@H](NC=O)C(C)C)C(=O)N[C@@H](C)C(=O)N[C@@H](C(=O)N[C@H](C(=O)N[C@H](C(=O)N[C@@H](Cc1c[nH]c2ccccc12)C(=O)N[C@H](CC(C)C)C(=O)N[C@@H](Cc1c[nH]c2ccccc12)C(=O)N[C@H](CC(C)C)C(=O)N[C@@H](Cc1c[nH]c2ccccc12)C(=O)N[C@H](CC(C)C)C(=O)N[C@@H](Cc1c[nH]c2ccccc12)C(=O)NCCO)C(C)C)C(C)C)C(C)C	48.7%	
COc1ccc(C2CNC(=O)C2)cc1OC1CCCC1 (stereo not drawn) [Rolipram]	61.4 ± 6.2%	
COc1ccc(C2CNC(=O)C2)cc1OC1CCCC1 (stereo not drawn)	76.8 ± 24%	
O=c1c(O)c(-c2ccc(O)cc2O)oc2cc(O)cc(O)c12 [Morin hydrate]		78.4
O=c1c(O)c(-c2ccc(O)cc2O)oc2cc(O)cc(O)c12 [Morin]	108%	
CC(/C=C/c1cccc(Oc2ccc(F)cc2)c1)N(O)C(N)=O (stereo not drawn)	85.6%	

An excerpt of these results, with bars between the fields.
SMILES | HMGB1-induced TNF-alpha production (compound concentration: 3 uM) | HMGB1-induced TNF-alpha production [1] [%]
C[C@H](CCC(=O)O)[C@H]1CC[C@H]2[C@@H]3[C@H](O)C[C@@H]4C[C@H](O)CC[C@]4(C)[C@H]3CC[C@]12C | 99% | 
CN1CCN(c2c(F)cc3c(=O)c(C(=O)O)cn(CCF)c3c2F)CC1 [Fleroxacin] | 92.581 ± 0.0042% | 

Following part:

SMILES	HMGB1-induced TNF-alpha production (compound concentration: 3 uM)	HMGB1-induced TNF-alpha production [1] [%]
c1ccc2c3c([nH]c2c1)C1C2CCC(C4CCCNC42)N1CC3 (stereo not drawn) [Nitrarine dihydrochloride]	121%	
CCCCN1CCCC1CNC(=O)c1cc(C#N)c2ccccc2c1OC (stereo not drawn) [Nafadotride]	100%	
Cc1ccc([N+](=O)[O-])cc1S(=O)(=O)N(C)C	97.3%	
O=S(=O)(O)c1cc(O)ccc1O [Ethamsylate]	98.8%	
Cc1c(O)c(=O)ccn1C	91.9% and 89.2%	
CC(C)C[C@H](NP(=O)(O)O[C@H]1O[C@H](C)[C@@H](O)[C@H](O)[C@@H]1O)C(=O)N[C@@H](Cc1c[nH]c2ccccc12)C(=O)O [Phosphoramidon disodium]	103%	
c1ccc([C@H]2CN3CCSC3=N2)cc1 [Levamisole hydrochloride]	94%	
c1ccc([C@H]2CN3CCSC3=N2)cc1	83.2%	
c1ccc([C@H]2CN3CCSC3=N2)cc1 [Levamisole]	112%	
CCC(=O)O[C@]1(C(=O)CCl)[C@@H](C)C[C@H]2[C@@H]3CCC4=CC(=O)C=C[C@]4(C)[C@@]3(F)[C@@H](O)C[C@@]21C [Clobetasol Propionate]	46.4%	
CCC(=O)O[C@]1(C(=O)CCl)[C@@H](C)C[C@H]2[C@@H]3CCC4=CC(=O)C=C[C@]4(C)[C@@]3(F)[C@@H](O)C[C@@]21C [Clobetasol propionate]	35.6%	
CCC(=O)O[C@]1(C(=O)CCl)[C@@H](C)C[C@H]2[C@@H]3CCC4=CC(=O)C=C[C@]4(C)[C@@]3(F)[C@@H](O)C[C@@]21C	41.2%	
O=C1C[C@@H](c2ccc(O)cc2)Oc2cc(O)cc(O)c21 [Naringenin]		77.2
O=C1OCCN1/N=C/c1ccc([N+](=O)[O-])o1 [Furazolidone]	103%	
O=C1OCCN1/N=C/c1ccc([N+](=O)[O-])o1	73.9%	
NC(=O)c1ccc([N+](=O)[O-])cc1Cl	97.8 ± 11%	
COc1ccc(-c2cc3ncc(C)n3c(Nc3ncccc3C(N)=O)n2)cc1OC [BAY 61-3606 hydrochloride hydrate]	86.9%	
Oc1ccc([C@@H]2CNCc3sccc32)cc1O	105%	
Nc1nc2n[nH]nc2c(=O)[nH]1 [Azaguanine-8]	159%	
Nc1nc2c(nc(Br)n2C2OC3COP(=O)(O)O[C@@H]3C2O)c(=O)[nH]1 (stereo partly drawn) [8-Bromo-cGMP sodium]	94.2%	
CN(C)c1nc(N(C)C)nc(N(C)C)n1 [Altretamine]	79.5 ± 21%	
CN(C)c1nc(N(C)C)nc(N(C)C)n1	95.2 ± 1.5%	
CC(C)NCC(O)c1ccc2ccccc2c1 (stereo not drawn)	86.8%	
CC(C)NCC(O)c1ccc2ccccc2c1 (stereo not drawn) [Pronethalol]	91.5%	
CC(C)NCC(O)c1ccc2ccccc2c1 (stereo not drawn) [Pronethalol hydrochloride]	102%	
O=C(O)c1cc(-c2ccccc2)nc2ccccc12	119%	
